Among the data in article PMC6521620 are binding values, retold here.

By UniProt entry, the sequences of proteins in these tests, tags left out. Residues count along the entry.
UniProt P21530, residues 690-1062: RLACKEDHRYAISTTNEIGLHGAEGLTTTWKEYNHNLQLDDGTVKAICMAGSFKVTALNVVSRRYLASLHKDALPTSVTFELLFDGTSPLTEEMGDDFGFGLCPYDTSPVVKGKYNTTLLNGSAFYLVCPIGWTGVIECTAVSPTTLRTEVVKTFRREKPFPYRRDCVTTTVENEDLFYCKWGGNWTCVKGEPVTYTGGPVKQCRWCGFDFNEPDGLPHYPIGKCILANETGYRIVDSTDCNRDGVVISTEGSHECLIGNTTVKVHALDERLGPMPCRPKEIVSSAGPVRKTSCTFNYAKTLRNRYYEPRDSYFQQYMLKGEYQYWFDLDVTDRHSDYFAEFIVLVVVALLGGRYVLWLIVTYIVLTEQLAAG
UniProt P61292: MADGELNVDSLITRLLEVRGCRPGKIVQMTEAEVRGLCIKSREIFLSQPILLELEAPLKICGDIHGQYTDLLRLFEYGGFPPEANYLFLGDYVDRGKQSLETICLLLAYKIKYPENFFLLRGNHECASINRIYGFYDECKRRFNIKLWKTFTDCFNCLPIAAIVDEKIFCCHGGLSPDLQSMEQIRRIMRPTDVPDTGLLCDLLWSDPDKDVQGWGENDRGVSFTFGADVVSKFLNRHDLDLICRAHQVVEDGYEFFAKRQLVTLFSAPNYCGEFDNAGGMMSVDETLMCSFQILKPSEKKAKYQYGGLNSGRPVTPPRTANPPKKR

These are yes or no findings as the source states them, for the method shown. In cells and extracts the contact can be indirect. Some results given as binding are weak or reduced against the parent protein; the word gives no strength.

Experiment [1] has as its target CSFV E2 glycoprotein in CSFV strain Brescia (BICv)-infected SK6 cells (classical swine fever virus strain Brescia) (UniProt P21530). The experiment in a line: co-IP.
Experiment [2] has the same target. The experiment in a line: proximity ligation.

With “endogenous PPP1CB of SK6 swine kidney cells (from UniProt P61292 1-327)”, the binding entry in experiment [1] and in experiment [2] was “binds” in each case.
